Measured values published in publication PMC9251882.
No constants are given. Whether binding was seen depends on the method and setting. Binding seen in cells or lysates may run through a third protein. Some entries that bind do so weakly or less than the wild type.

The chains behind the UniProt entries cited, without tags or fusion partners. Residues count along the entry.
UniProt Q99755: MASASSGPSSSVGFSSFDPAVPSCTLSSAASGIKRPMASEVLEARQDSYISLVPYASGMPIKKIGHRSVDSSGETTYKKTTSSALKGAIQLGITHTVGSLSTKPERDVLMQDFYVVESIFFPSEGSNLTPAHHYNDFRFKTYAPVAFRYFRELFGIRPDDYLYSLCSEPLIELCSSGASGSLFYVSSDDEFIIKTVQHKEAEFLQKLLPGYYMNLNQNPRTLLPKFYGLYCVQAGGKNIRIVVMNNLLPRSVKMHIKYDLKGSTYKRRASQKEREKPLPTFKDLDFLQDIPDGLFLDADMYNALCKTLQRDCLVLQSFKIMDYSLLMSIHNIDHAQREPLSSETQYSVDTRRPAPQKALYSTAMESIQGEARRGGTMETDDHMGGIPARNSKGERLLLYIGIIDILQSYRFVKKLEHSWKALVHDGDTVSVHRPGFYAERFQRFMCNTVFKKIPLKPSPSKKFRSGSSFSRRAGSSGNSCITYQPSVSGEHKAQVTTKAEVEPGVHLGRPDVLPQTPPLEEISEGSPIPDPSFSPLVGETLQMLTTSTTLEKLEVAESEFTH
UniProt P10275: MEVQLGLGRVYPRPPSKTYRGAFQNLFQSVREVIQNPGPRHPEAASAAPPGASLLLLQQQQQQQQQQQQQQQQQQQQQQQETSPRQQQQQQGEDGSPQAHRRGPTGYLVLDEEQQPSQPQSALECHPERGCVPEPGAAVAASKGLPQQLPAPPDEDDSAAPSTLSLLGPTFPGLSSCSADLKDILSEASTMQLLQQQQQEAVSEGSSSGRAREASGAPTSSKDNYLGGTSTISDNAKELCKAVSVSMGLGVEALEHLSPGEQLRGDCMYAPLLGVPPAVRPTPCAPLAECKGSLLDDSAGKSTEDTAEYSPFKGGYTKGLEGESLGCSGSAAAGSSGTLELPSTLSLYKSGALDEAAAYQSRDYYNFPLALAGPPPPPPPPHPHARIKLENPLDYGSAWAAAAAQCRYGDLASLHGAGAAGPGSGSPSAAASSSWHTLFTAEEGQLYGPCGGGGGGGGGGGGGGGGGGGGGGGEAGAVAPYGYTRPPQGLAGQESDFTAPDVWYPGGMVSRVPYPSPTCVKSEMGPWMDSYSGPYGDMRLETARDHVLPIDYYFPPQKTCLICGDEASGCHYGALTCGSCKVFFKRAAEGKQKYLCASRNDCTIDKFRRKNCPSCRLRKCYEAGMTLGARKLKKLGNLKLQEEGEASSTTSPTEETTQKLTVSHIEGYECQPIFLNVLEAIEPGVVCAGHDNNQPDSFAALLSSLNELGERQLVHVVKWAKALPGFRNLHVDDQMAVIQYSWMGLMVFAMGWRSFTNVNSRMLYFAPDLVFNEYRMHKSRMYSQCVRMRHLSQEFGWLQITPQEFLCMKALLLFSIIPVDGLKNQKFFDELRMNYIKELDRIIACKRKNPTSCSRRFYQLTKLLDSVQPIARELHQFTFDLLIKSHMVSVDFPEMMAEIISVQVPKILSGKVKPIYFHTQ
UniProt P08637, residues 17-254: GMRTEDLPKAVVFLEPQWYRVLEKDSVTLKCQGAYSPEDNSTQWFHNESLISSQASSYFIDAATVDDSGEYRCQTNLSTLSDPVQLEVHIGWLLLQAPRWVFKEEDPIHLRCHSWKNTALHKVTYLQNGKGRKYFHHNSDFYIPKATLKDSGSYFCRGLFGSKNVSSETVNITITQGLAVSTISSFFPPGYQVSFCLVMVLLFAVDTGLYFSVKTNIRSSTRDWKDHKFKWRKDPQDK

Target: phosphatidylinositol‐4‐phosphate 5‐kinase type‐1 alpha (human (endogenous in C4‐2)) (UniProt Q99755)
Assay: co-IP; C4‐2 cell lysate; antibody against PIP5K1α used to pull down the immune complexes, antibody to IgG as negative control; immunoblot with antibodies against FcγRIIIa and AR

binding	Substance
binds	androgen receptor (from UniProt P10275 1-920)
binds	low‐affinity immunoglobulin gamma Fc region receptor III‐A (from UniProt P08637 17-254)
